Assay results published in publication PMC6771250.
No constants are given. Whether binding was seen depends on the method and setting. Binding seen in cells or lysates may run through a third protein. These calls come from enrichment with a bait or labelling near it, and not all partners need be listed.

Molecular target: T1, BCAP31, bait of the immune affinity purification for mass spectrometry (UniProt P51572)
T1 sequence: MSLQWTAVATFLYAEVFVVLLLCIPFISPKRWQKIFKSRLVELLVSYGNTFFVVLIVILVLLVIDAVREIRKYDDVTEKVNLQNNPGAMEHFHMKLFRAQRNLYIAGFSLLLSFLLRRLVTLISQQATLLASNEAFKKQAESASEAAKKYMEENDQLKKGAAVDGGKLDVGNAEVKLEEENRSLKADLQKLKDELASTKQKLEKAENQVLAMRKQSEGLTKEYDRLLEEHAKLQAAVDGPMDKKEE
Test: affinity purification with mass spectrometry; immune affinity purification of BCAP31; complex resolved on SDS-PAGE, silver stained, bands analysed by LC-MS/MS; search against Swiss-Prot (Homo sapiens), at least two unique peptides; cells not named

binding | Substance
binds | RAB11 found with BCAP31 by mass spectrometry (human)
binds | EGFR found with BCAP31 by mass spectrometry (from UniProt P00533 25-1210) (receptor)
